{
  "source": "patent US8465947B2",
  "about": "(Novacta Biosystems Limited, priority 2006, dated 2013)",
  "assay": "general procedure: peptide synthesis; PyBop/diisopropylethylamine",
  "details": "late stage modification step",
  "data": [
    {"substance": "Deoxy-Actagardine B N-[3-dimethylaminopropyl]monocarboxamide", "values": [
      {"measurement": "step yield", "result": 85, "unit": "%"}
    ]}
  ]
}
